# Test results reported in US20220202799A1, “PHARMACEUTICAL FORMULATIONS CONTAINING P2Y14 ANTAGONISTS” (priority 2019, published 2022).
# Several values for one entry are separate records, joined by “and”; a condition that tells them apart may be missing. Equal values may be shown once. This continues a long series; more values of the same kind are listed elsewhere.
# Tests used:
# [1] = Urine concentrations, 24-hour continuous intravenous infusion; assay type: in vivo, Sprague-Dawley rats; settings: for Urine Conc.: individual animals; for Urine Conc., individual animal: male Sprague-Dawley rats, 24-hour intravenous infusion at 10 mg/kg, 10 mg/kg
# Protocol: (§1) The safety and pharmacokinetics of PPTN (KB-1801) in rats receiving continuous intravenous injections of SBECD-containing solutions were analyzed. Three cohorts of six male and six female rats each were given continuous intravenous infusion of PPTN (KB-1801) at 10 mg/kg/day, 30 mg/kg/day or 100 mg/kg/day in a dosing solution containing PPTN at 0.25 mg/mL, 0.75 mg/mL or 2.5 mg/mL and SBECD at about 3.8%. Dosing volume was 40 mIkg/day.
# [2] = Urine concentrations, 72-hour continuous intravenous infusion; assay type: in vivo, Sprague-Dawley rats; settings: individual animals
# Protocol: as §1
# [3] = 72-hour IV infusion 10 mg/kg/day, female rats, interval 0-4 h
# [4] = 72-hour IV infusion 10 mg/kg/day, female rats, interval 4-9 h
# [5] = 72-hour IV infusion 10 mg/kg/day, female rats, interval 20-24 h
# [6] = 72-hour IV infusion 10 mg/kg/day, female rats, interval 44-48 h
# [7] = 72-hour IV infusion 10 mg/kg/day, female rats, interval 68-72 h
# [8] = 72-hour IV infusion 10 mg/kg/day, female rats, interval 92-96 h
# [9] = 72-hour IV infusion 10 mg/kg/day, male rats, interval 4-9 h
# [10] = 72-hour IV infusion 10 mg/kg/day, male rats, interval 20-24 h
# [11] = 72-hour IV infusion 10 mg/kg/day, male rats, interval 44-48 h
# [12] = 72-hour IV infusion 10 mg/kg/day, male rats, interval 68-72 h
# [13] = 72-hour IV infusion 30 mg/kg/day, female rats, interval 0-4 h
# [14] = 72-hour IV infusion 30 mg/kg/day, female rats, interval 4-9 h
# [15] = 72-hour IV infusion 30 mg/kg/day, female rats, interval 20-24 h
# [16] = 72-hour IV infusion 30 mg/kg/day, female rats, interval 44-48 h
# [17] = 72-hour IV infusion 30 mg/kg/day, female rats, interval 68-72 h
# [18] = 72-hour IV infusion 30 mg/kg/day, female rats, interval 92-96 h
# [19] = 72-hour IV infusion 30 mg/kg/day, male rats, interval 0-4 h
# [20] = 72-hour IV infusion 30 mg/kg/day, male rats, interval 4-9 h
# [21] = 72-hour IV infusion 30 mg/kg/day, male rats, interval 20-24 h
# [22] = 72-hour IV infusion 30 mg/kg/day, male rats, interval 44-48 h
smiles,measurement,setting,value
"O=C(O)c1cc(-c2ccc(C3CCNCC3)cc2)c2ccc(-c3ccc(C(F)(F)F)cc3)cc2c1 [KB-1801, 4-[4-(piperidin-4-yl)phenyl]-7-[4-(trifluoromethyl)phenyl]-2-naphthoic acid]",Urine Conc.,"[1]; 24-hour IV infusion 10 mg/kg, female rats, interval 0-4 h",0.33 µg/mL and 0.47 µg/mL and 0.81 µg/mL and 2.49 µg/mL and 4.21 µg/mL
same,Urine Conc.,"[1]; 24-hour IV infusion 10 mg/kg, female rats, interval 4-9 h",3.83 µg/mL and 13.2 µg/mL and 7.48 µg/mL and 0.54 µg/mL and 0.23 µg/mL
same,Urine Conc.,"[1]; 24-hour IV infusion 10 mg/kg, female rats, interval 9-24 h",25.7 µg/mL and 38.3 µg/mL and 18.2 µg/mL and 26.8 µg/mL and 15.3 µg/mL
same,Urine Conc.,"[1]; 24-hour IV infusion 30 mg/kg, female rats, interval 0-4 h",3.51 µg/mL and 6.66 µg/mL and 0.02 µg/mL and 17.69 µg/mL and 1.42 µg/mL
same,Urine Conc.,"[1]; 24-hour IV infusion 30 mg/kg, female rats, interval 4-9 h",9.17 µg/mL and 32.4 µg/mL and 15.1 µg/mL and 19.7 µg/mL
same,Urine Conc.,"[1]; 24-hour IV infusion 30 mg/kg, female rats, interval 9-24 h",55.3 µg/mL and 46.5 µg/mL and 68.3 µg/mL and 84.8 µg/mL and 75.6 µg/mL
same,Urine Conc.,"[1]; 24-hour IV infusion 30 mg/kg, male rats, interval 0-4 h",0.05 μg/mL and 2.03 μg/mL and 0.02 μg/mL (2×) and 0.003 μg/mL and 33.9 μg/mL
same,Urine Conc.,"[1]; 24-hour IV infusion 30 mg/kg, male rats, interval 4-9 h",26.0 µg/mL and 29.2 µg/mL and 28.2 µg/mL and 0.01 µg/mL and 7.87 µg/mL and 21.8 µg/mL
same,Urine Conc.,"[1]; 24-hour IV infusion 30 mg/kg, male rats, interval 9-24 h",48.2 µg/mL and 71.5 µg/mL and 87.1 µg/mL and 113.8 µg/mL and 90.6 µg/mL and 79.0 µg/mL
same,Urine Conc.,"[1]; 24-hour IV infusion 100 mg/kg, female rats, interval 0-4 h",0.01 μg/mL (2×) and 9.75 μg/mL and 3.61 μg/mL and 17.1 μg/mL and 2.38 μg/mL
same,Urine Conc.,"[1]; 24-hour IV infusion 100 mg/kg, female rats, interval 4-9 h",3.67 µg/mL and 48.3 µg/mL and 19.9 µg/mL and 0.01 µg/mL and 18.3 µg/mL
same,Urine Conc.,"[1]; 24-hour IV infusion 100 mg/kg, female rats, interval 9-24 h",26.7 µg/mL and 146.4 µg/mL and 48.8 µg/mL and 356.5 µg/mL and 167.0 µg/mL and 248.5 µg/mL
same,Urine Conc.,"[1]; 24-hour IV infusion 100 mg/kg, male rats, interval 0-4 h",0.24 µg/mL and 40.8 µg/mL and 128.2 µg/mL
same,Urine Conc.,"[1]; 24-hour IV infusion 100 mg/kg, male rats, interval 4-9 h",22.4 µg/mL and 52.0 µg/mL and 0.004 µg/mL and 60.3 µg/mL and 32.1 µg/mL and 143.1 µg/mL
same,Urine Conc.,"[1]; 24-hour IV infusion 100 mg/kg, male rats, interval 9-24 h",403.7 µg/mL and 412.0 µg/mL and 561.5 µg/mL and 541.9 µg/mL and 155.6 µg/mL
same,"Urine Conc., individual animal",[1]; time interval 0-4 h,5.36 µg/mL and 1.41 µg/mL and 10.1 µg/mL and 7.41 µg/mL and 0.06 µg/mL
same,"Urine Conc., individual animal",[1]; time interval 4-9 h,11.2 µg/mL and 1.16 µg/mL and 30.7 µg/mL and 1.30 µg/mL
same,"Urine Conc., individual animal",[1]; time interval 9-24 h,32.3 µg/mL and 17.8 µg/mL and 31.6 µg/mL and 33.2 µg/mL and 28.1 µg/mL and 37.0 µg/mL
same,Amount in urine,[2]; [3],1.10 µg and 0.0002 µg and 0.0004 µg
same,Urine Conc.,[2]; [3],1.10 µg/mL and 0.02 µg/mL and 0.01 µg/mL
same,Amount in urine,[2]; [4],2.94 µg and 1.49 µg and 8.54 µg and 5.44 µg and 7.26 µg
same,Urine Conc.,[2]; [4],14.7 µg/mL and 14.9 µg/mL and 5.69 µg/mL and 5.44 µg/mL and 18.1 µg/mL
same,Amount in urine,[2]; [5],5.14 µg and 9.24 µg and 2.78 µg and 6.21 µg and 6.50 µg
same,Urine Conc.,[2]; [5],25.7 µg/mL and 18.5 µg/mL and 13.9 µg/mL and 20.7 µg/mL and 13.0 µg/mL
same,Amount in urine,[2]; [6],16.8 µg and 2.18 µg and 6.75 µg and 3.31 µg and 4.53 µg
same,Urine Conc.,[2]; [6],11.2 µg/mL and 21.8 µg/mL and 13.5 µg/mL and 16.5 µg/mL and 9.06 µg/mL
same,Amount in urine,[2]; [7],1.29 µg and 4.95 µg and 6.21 µg and 3.18 µg and 5.92 µg and 11.1 µg
same,Urine Conc.,[2]; [7],12.9 µg/mL and 4.95 µg/mL and 20.7 µg/mL and 31.8 µg/mL and 11.8 µg/mL and 11.1 µg/mL
same,Amount in urine,[2]; [8],0.003 µg and 0.01 µg and 0.0005 µg and 0.004 µg and 0.001 µg
same,Urine Conc.,[2]; [8],0.01 μg/mL (2×) and 0.10 μg/mL and 0.02 μg/mL and 0.05 μg/mL
same,Amount in urine,"[2]; 72-hour IV infusion 10 mg/kg/day, male rats, interval 0-4 h",1.75 µg and 3.96 µg
same,Amount in urine,[2]; [9],7.88 µg and 9.98 µg
same,Urine Conc.,[2]; [9],33.3 µg/mL
same,Amount in urine,[2]; [10],9.72 µg and 20.9 µg
same,Urine Conc.,[2]; [10],20.9 µg/mL
same,Amount in urine,[2]; [11],34.1 µg and 9.88 µg
same,Urine Conc.,[2]; [11],24.7 µg/mL
same,Amount in urine,[2]; [12],20.9 µg and 16.1 µg
same,Urine Conc.,[2]; [12],16.1 µg/mL
same,Amount in urine,"[2]; 72-hour IV infusion 10 mg/kg/day, male rats, interval 92-96 h",0.01 µg
same,Amount in urine,[2]; [13],1.98 µg and 2.11 µg and 2.15 µg
same,Urine Conc.,[2]; [13],4.94 µg/mL and 5.26 µg/mL and 5.36 µg/mL
same,Amount in urine,[2]; [14],10.0 µg and 10.8 µg and 10.6 µg and 33.8 µg and 15.1 µg
same,Urine Conc.,[2]; [14],33.4 µg/mL and 21.7 µg/mL and 52.8 µg/mL and 22.6 µg/mL and 30.2 µg/mL
same,Amount in urine,[2]; [15],12.0 µg and 27.5 µg and 15.7 µg and 8.49 µg and 66.5 µg and 16.0 µg
same,Urine Conc.,[2]; [15],24.1 µg/mL and 27.5 µg/mL and 39.3 µg/mL and 84.9 µg/mL and 66.5 µg/mL and 16.0 µg/mL
same,Amount in urine,[2]; [16],25.2 µg and 31.4 µg and 52.6 µg and 13.7 µg and 12.4 µg and 58.3 µg
same,Urine Conc.,[2]; [16],50.5 µg/mL and 31.4 µg/mL and 52.6 µg/mL and 45.6 µg/mL and 61.9 µg/mL and 38.9 µg/mL
same,Amount in urine,[2]; [17],26.4 µg and 6.96 µg and 10.8 µg and 1.57 µg and 40.1 µg
same,Urine Conc.,[2]; [17],26.4 µg/mL and 34.8 µg/mL and 54.2 µg/mL and 78.3 µg/mL and 20.0 µg/mL
same,Amount in urine,[2]; [18],0.008 μg and 0.01 μg (2×) and 0.03 μg and 0.02 μg (2×)
same,Urine Conc.,[2]; [18],0.02 μg/mL (2×) and 0.04 μg/mL and 0.10 μg/mL and 0.11 μg/mL and 0.09 μg/mL
same,Amount in urine,[2]; [19],7.51 µg and 1.93 µg and 1.19 µg and 0.0 µg and 2.29 µg
same,Urine Conc.,[2]; [19],7.51 µg/mL and 32.1 µg/mL and 23.9 µg/mL and 0.89 µg/mL and 5.72 µg/mL
same,Amount in urine,[2]; [20],17.0 µg and 3.07 µg and 31.1 µg and 11.4 µg and 29.3 µg
same,Urine Conc.,[2]; [20],34.0 µg/mL and 76.7 µg/mL and 20.7 µg/mL and 114.0 µg/mL and 73.3 µg/mL
same,Amount in urine,[2]; [21],35.0 µg and 55.7 µg and 33.4 µg and 39.0 µg and 83.2 µg
same,Urine Conc.,[2]; [21],70.0 µg/mL and 55.7 µg/mL and 111.5 µg/mL and 78.0 µg/mL and 41.6 µg/mL
same,Amount in urine,[2]; [22],64.7 µg and 82.2 µg and 106.2 µg and 32.0 µg and 11.5 µg and 127.0 µg
same,Urine Conc.,[2]; [22],64.7 µg/mL and 82.2 µg/mL and 53.1 µg/mL and 64.0 µg/mL and 114.6 µg/mL and 63.5 µg/mL
same,Amount in urine,"[2]; 72-hour IV infusion 30 mg/kg/day, male rats, interval 68-72 h",63.2 µg and 77.8 µg and 55.7 µg and 42.7 µg and 25.4 µg and 90.1 µg
